Measured data: PubChem BioAssay AID1159579 (Peter MacCallum Cancer Centre, 2015)

- Assay: 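Retest candidate lymphatic endothelial migration regulators using several independent siRNAs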 (follow-up of hits)
- System: human dermal lymphatic endothelial cells
- Knock-down reagent: single siRNA against human genes, 25 nM
- Measurement: 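Scratch wound imaging measuring area filled by moving cells plus nuclei number, averaged over two wells and scaled to mock-transfected controls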
- Scale: migration relative to mock: higher = more migration into the scratch; mean nuclei count: higher = more cells remaining
- Active means: 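a ratio of at most 0.6 or at least 1.3 marks altered migration and an active call; a mean nuclei count under 3300 forces an inactive call regardless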
- Meaning of the calls: active = migration changed (impaired or accelerated); inactive = no migration change, or too few cells
This is an unselected part of about 2,000 reagents tested. 549 of them (27%) were called active. 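Some migration ratios are negative; siRNAs with too few cells are inactive whatever their migration ratio.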 Unmarked entries are inactive. The numbers tell different reagents against one gene apart. Not all columns of the deposit are shown. The record does not give: the time to read-out.

What is on record for LRCH1 (GeneID 23143) #1?
migration relative to mock: 1.11; mean nuclei count: 6230

With LRCH1 (GeneID 23143) #2, what was measured?
migration relative to mock: 0.73; mean nuclei count: 4002

With LRCH1 (GeneID 23143) #3, what does the deposit list?
migration relative to mock: 1.22; mean nuclei count: 6499

For LRCH1 (GeneID 23143) #4, what does the deposit list?
migration relative to mock: 1.16; mean nuclei count: 4962

For ADCY6 (GeneID 112) #1, what does the deposit list?
migration relative to mock: 1.11; mean nuclei count: 6449

For ADCY6 (GeneID 112) #2, what was measured?
migration relative to mock: 0.9; mean nuclei count: 3681

What did the screen give for ADCY6 (GeneID 112) #3?
migration relative to mock: 0.92; mean nuclei count: 4239

Which result is listed for ADCY6 (GeneID 112) #4?
migration relative to mock: 1.11; mean nuclei count: 5611

3 entries from above, arranged by “migration relative to mock”, descending.
LRCH1 (GeneID 23143) #4 → migration relative to mock = 1.16; mean nuclei count = 4962
ADCY6 (GeneID 112) #1 → migration relative to mock = 1.11; mean nuclei count = 6449
ADCY6 (GeneID 112) #2 → migration relative to mock = 0.9; mean nuclei count = 3681

The results go on.
With ANKRD13C (GeneID 81573) #1, what does the deposit list?
migration relative to mock: 0.96; mean nuclei count: 6008

What is on record for ANKRD13C (GeneID 81573) #2?
migration relative to mock: 0.3 (active); mean nuclei count: 4370

Which result is listed for ANKRD13C (GeneID 81573) #3?
migration relative to mock: 1.06; mean nuclei count: 5900

What did the screen give for ANKRD13C (GeneID 81573) #4?
migration relative to mock: 0.86; mean nuclei count: 6798

How did the screen score APOE (GeneID 348) #1?
migration relative to mock: 0.86; mean nuclei count: 6394

For APOE (GeneID 348) #2, how do the results read?
migration relative to mock: 0.81; mean nuclei count: 5140

What did the screen give for APOE (GeneID 348) #3?
migration relative to mock: 0.64; mean nuclei count: 5610

For APOE (GeneID 348) #4, what was measured?
migration relative to mock: 0.68; mean nuclei count: 3752

For PGAP1 (GeneID 80055) #1, what does the deposit list?
migration relative to mock: 0.97; mean nuclei count: 6699

How did the screen score PGAP1 (GeneID 80055) #2?
migration relative to mock: 1.08; mean nuclei count: 6998

Which result is listed for PGAP1 (GeneID 80055) #3?
migration relative to mock: -1.02; mean nuclei count: 2078

What did the screen give for PGAP1 (GeneID 80055) #4?
migration relative to mock: 0.92; mean nuclei count: 6390

What did the screen give for CDKN1C (GeneID 1028) #1?
migration relative to mock: 0.77; mean nuclei count: 6790

How did the screen score CDKN1C (GeneID 1028) #2?
migration relative to mock: 0.72; mean nuclei count: 6005

With CDKN1C (GeneID 1028) #3, what does the deposit list?
migration relative to mock: 0.94; mean nuclei count: 6618

How did the screen score CDKN1C (GeneID 1028) #4?
migration relative to mock: 0.91; mean nuclei count: 5805
